Holding throughout (assay): co-IP
The target in assay [1] is myc-tagged NOTCH2 (human) (UniProt Q04721).
In assay [2] the target is HA-tagged NOTCH2NL^L,T197I (long NOTCH2NL with Thr→Ile substitution) (human) (UniProt P0DPK3).
In assay [3] the target is HA-tagged NOTCH2NL^Sh (short NOTCH2NL) (human) (UniProt Q7Z3S9).

The chains behind the UniProt entries cited, without tags or fusion partners. Where a name states a change or a piece, a line headed by the entry shows the natural chain unless it says otherwise. Residues count along the entry.
UniProt Q04721, 26-2471: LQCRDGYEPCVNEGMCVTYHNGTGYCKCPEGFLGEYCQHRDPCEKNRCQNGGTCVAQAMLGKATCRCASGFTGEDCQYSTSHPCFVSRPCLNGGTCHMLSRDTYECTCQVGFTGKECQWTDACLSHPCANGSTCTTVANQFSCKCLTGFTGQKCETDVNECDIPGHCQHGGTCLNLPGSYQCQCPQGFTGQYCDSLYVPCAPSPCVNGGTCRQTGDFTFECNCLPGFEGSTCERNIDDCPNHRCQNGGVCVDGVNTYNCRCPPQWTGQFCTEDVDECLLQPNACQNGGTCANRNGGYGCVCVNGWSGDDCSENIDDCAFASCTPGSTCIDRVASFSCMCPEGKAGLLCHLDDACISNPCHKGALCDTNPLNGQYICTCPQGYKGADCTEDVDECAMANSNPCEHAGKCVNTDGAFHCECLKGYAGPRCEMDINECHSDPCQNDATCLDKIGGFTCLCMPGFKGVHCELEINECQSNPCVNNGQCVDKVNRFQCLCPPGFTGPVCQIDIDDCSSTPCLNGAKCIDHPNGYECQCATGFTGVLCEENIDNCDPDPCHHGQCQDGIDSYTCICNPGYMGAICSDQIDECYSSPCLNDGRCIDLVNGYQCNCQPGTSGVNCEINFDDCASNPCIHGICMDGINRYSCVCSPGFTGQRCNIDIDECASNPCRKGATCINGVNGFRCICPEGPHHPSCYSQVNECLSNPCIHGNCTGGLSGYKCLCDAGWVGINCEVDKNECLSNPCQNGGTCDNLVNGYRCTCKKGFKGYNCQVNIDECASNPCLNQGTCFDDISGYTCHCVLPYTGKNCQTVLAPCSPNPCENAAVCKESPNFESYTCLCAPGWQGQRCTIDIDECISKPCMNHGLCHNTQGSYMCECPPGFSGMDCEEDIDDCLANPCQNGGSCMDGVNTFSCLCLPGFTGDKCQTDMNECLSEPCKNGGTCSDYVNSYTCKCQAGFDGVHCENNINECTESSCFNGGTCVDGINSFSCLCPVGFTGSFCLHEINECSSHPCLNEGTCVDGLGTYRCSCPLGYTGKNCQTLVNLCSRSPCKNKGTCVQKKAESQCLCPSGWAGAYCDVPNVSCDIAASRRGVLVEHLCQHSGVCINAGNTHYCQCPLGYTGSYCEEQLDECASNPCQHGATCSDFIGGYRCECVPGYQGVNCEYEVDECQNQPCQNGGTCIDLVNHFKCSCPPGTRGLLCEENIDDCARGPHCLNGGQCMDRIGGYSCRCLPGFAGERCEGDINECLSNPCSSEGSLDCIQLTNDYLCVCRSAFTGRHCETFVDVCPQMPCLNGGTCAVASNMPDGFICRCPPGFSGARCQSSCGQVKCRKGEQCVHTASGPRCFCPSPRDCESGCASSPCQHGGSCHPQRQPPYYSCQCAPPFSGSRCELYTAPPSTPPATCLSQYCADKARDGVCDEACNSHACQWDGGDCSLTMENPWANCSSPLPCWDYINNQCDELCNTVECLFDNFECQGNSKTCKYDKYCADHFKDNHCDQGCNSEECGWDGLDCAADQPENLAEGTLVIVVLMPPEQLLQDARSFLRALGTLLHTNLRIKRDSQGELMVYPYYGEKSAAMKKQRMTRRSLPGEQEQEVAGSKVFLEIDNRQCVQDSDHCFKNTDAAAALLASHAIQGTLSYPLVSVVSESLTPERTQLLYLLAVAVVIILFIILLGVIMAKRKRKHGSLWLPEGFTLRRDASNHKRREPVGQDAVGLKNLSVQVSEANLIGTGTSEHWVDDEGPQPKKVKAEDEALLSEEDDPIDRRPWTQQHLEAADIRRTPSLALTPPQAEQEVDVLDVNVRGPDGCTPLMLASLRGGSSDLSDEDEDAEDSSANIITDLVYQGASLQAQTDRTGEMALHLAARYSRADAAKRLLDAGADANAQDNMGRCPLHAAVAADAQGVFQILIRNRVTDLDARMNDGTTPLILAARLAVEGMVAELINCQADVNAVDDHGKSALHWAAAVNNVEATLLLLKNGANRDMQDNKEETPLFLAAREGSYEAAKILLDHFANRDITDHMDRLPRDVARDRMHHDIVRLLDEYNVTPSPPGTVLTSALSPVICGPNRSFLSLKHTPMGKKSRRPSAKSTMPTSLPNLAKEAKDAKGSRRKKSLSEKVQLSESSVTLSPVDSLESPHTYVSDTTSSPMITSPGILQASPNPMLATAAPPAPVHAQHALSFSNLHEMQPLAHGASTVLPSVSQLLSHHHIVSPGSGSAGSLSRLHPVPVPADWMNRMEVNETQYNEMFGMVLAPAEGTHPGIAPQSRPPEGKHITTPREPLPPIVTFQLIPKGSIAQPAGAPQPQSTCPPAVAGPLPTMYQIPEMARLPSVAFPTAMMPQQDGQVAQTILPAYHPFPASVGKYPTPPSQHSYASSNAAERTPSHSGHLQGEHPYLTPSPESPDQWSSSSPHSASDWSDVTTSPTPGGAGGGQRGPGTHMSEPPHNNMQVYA
UniProt P0DPK3, 26-275, stated change not applied: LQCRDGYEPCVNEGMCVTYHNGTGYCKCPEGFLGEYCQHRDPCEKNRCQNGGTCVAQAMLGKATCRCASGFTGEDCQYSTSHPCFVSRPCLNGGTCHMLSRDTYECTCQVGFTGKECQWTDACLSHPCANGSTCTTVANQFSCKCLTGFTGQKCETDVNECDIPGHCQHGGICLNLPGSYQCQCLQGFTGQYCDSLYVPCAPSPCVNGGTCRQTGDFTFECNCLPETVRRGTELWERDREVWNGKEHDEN
UniProt Q7Z3S9, whole entry: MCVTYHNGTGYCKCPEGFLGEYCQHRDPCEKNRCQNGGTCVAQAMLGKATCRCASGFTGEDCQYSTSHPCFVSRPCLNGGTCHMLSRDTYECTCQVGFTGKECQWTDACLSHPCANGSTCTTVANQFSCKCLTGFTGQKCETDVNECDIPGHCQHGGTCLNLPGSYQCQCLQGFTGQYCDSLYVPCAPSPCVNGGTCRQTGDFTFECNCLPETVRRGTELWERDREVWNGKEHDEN

No constants are given. Whether binding was seen depends on the method and setting. Binding seen in cells or lysates may run through a third protein. Some binding calls cover weakened binding; strength is not graded here.

Take “HA-tagged NOTCH2NL^L,T197I (long NOTCH2NL with Thr→Ile substitution) (from UniProt P0DPK3 26-275)”: the binding result in assay [1] was “binds”.

Regarding “HA-tagged NOTCH2NL^Sh (short NOTCH2NL) (from UniProt Q7Z3S9 1-236)”, the binding entry in assay [1] was “binds”.

Turning to “myc-tagged NOTCH2 (from UniProt Q04721 26-2471) (receptor)”, the binding result in assay [2] and in assay [3] was “binds” throughout.

Source of the values: article doi:10.1101/221226.
